Results are given in words; binding and its absence hold for the method and conditions named. Some entries that bind do so weakly or less than the wild type.
Key:
[1] = target: Notch2 (human (endogenous in human aortic SMCs)) (UniProt Q04721); test: flow cytometry on cells
[2] = target: Notch3 (human (endogenous in human aortic SMCs)) (UniProt Q9UM47); test: flow cytometry on cells

Chains of the proteins cited; added tags and fusions are not shown. Lines headed by an entry give the natural chain unless they say otherwise; changes in a name come on top. Residues count along the entry.
UniProt Q04721, residues 26-2471: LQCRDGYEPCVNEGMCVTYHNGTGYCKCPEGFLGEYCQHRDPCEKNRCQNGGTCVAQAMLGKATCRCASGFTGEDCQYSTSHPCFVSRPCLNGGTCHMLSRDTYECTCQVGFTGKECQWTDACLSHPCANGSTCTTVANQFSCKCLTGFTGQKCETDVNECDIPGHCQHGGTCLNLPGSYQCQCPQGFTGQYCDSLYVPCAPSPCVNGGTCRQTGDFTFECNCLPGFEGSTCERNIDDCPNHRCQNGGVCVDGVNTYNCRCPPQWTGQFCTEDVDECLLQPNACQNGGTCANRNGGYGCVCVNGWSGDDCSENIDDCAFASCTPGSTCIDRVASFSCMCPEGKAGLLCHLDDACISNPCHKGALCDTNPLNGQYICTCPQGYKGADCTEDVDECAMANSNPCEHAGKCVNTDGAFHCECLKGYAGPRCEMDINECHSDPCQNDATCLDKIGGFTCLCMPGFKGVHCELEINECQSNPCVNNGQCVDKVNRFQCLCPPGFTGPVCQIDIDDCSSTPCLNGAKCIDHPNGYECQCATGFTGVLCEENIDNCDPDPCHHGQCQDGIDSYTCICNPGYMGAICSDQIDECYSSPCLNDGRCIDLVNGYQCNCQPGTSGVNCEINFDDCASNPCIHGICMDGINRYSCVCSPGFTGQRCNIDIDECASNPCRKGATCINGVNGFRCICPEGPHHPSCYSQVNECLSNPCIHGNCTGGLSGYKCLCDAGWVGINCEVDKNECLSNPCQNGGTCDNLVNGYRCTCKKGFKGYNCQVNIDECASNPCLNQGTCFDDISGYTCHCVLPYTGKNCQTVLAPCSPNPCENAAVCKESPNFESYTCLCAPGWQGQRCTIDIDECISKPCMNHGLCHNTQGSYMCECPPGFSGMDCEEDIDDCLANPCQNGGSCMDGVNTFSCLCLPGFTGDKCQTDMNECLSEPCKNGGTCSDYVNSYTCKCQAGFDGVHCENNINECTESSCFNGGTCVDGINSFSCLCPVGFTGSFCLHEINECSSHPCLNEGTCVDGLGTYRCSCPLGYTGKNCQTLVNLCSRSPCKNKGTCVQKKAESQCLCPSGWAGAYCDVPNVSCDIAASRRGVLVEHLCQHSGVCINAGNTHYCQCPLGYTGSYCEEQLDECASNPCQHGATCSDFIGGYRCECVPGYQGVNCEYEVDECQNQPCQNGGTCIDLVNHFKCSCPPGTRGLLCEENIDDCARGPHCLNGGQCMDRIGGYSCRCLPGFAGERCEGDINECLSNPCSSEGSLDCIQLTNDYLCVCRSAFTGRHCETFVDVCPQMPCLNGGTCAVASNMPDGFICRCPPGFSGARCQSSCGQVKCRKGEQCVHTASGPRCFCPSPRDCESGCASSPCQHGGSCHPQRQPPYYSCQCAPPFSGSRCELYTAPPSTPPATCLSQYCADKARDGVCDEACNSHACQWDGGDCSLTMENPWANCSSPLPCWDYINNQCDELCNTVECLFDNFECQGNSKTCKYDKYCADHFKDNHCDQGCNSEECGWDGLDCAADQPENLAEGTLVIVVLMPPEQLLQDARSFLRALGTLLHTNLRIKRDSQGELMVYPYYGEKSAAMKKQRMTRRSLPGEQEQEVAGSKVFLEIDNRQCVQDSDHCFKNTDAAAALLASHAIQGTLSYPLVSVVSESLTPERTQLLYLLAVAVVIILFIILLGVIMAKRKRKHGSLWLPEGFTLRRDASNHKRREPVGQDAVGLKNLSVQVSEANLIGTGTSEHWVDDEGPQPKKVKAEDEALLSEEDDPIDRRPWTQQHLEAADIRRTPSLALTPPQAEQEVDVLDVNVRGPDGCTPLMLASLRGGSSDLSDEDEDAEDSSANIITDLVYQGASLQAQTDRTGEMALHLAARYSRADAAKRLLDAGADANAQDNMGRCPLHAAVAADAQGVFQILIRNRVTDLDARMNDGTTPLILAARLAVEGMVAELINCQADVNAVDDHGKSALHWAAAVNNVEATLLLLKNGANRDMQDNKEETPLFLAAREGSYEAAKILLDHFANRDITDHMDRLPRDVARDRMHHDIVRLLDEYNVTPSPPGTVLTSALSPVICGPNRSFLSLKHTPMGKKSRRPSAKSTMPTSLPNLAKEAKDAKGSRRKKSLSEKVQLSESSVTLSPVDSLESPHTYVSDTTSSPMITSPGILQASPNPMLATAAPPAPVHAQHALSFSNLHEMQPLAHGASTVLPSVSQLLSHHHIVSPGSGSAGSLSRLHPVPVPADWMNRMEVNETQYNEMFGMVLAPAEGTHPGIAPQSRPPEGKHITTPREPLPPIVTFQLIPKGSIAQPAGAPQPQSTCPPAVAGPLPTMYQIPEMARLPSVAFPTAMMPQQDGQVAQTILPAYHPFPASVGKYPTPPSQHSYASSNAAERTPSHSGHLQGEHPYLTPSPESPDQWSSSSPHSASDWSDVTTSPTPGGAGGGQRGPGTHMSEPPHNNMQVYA
UniProt Q9UM47, residues 40-2321: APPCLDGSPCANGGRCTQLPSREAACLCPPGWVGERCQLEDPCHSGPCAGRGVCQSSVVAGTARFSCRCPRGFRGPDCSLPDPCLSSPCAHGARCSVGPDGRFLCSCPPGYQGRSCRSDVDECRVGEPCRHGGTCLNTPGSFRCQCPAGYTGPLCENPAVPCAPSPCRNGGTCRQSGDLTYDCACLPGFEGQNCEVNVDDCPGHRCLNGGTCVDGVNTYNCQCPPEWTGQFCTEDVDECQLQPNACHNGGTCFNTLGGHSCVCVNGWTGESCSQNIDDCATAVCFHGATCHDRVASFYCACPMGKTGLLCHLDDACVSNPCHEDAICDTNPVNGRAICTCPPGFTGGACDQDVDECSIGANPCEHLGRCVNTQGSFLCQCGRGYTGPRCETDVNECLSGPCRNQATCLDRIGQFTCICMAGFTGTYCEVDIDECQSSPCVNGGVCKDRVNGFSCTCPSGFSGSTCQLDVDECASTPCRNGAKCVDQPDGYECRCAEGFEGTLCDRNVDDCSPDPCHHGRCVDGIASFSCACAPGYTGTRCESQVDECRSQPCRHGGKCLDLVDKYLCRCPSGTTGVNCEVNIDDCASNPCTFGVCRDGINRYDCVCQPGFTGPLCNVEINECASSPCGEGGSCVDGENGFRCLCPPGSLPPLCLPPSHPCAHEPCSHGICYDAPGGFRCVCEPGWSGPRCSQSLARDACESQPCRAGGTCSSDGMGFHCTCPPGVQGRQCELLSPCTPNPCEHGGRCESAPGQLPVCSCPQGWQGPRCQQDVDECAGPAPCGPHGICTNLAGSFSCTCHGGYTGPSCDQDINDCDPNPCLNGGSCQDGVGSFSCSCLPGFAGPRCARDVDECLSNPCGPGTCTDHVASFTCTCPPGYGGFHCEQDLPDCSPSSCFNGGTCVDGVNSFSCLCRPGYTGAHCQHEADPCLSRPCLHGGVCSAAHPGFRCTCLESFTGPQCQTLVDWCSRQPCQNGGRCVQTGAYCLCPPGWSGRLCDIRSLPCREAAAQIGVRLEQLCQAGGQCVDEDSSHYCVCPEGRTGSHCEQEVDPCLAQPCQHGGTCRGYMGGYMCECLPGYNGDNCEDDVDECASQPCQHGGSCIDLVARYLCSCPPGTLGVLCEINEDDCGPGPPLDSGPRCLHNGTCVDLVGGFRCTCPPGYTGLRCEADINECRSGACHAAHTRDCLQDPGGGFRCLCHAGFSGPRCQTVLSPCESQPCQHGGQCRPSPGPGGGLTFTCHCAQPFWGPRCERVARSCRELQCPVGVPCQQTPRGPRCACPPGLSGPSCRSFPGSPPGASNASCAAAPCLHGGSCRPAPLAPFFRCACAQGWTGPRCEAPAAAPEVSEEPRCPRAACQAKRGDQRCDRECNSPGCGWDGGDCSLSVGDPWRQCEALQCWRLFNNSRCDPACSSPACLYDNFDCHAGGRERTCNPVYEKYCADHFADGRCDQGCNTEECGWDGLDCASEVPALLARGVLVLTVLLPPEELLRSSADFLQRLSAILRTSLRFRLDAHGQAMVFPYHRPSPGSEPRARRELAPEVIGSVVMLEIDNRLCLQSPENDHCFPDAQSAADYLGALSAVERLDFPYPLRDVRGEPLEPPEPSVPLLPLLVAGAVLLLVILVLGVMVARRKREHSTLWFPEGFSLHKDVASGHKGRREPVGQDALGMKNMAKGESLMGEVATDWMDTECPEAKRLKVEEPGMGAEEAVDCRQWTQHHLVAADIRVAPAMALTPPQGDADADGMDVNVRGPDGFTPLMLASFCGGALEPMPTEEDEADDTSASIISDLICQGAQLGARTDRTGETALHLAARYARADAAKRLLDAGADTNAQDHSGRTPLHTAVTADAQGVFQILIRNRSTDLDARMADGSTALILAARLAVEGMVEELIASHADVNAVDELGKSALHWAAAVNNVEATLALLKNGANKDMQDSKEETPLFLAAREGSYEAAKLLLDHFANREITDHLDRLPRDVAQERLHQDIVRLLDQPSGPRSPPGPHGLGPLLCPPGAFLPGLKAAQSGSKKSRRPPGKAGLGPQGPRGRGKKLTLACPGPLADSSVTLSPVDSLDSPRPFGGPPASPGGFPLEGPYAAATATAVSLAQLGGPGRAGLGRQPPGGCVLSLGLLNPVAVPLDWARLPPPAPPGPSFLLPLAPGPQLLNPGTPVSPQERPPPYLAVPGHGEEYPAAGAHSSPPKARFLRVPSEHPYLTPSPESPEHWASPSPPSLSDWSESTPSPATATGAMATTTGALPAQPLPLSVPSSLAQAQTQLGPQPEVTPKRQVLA
UniProt P78504, residues 34-1067: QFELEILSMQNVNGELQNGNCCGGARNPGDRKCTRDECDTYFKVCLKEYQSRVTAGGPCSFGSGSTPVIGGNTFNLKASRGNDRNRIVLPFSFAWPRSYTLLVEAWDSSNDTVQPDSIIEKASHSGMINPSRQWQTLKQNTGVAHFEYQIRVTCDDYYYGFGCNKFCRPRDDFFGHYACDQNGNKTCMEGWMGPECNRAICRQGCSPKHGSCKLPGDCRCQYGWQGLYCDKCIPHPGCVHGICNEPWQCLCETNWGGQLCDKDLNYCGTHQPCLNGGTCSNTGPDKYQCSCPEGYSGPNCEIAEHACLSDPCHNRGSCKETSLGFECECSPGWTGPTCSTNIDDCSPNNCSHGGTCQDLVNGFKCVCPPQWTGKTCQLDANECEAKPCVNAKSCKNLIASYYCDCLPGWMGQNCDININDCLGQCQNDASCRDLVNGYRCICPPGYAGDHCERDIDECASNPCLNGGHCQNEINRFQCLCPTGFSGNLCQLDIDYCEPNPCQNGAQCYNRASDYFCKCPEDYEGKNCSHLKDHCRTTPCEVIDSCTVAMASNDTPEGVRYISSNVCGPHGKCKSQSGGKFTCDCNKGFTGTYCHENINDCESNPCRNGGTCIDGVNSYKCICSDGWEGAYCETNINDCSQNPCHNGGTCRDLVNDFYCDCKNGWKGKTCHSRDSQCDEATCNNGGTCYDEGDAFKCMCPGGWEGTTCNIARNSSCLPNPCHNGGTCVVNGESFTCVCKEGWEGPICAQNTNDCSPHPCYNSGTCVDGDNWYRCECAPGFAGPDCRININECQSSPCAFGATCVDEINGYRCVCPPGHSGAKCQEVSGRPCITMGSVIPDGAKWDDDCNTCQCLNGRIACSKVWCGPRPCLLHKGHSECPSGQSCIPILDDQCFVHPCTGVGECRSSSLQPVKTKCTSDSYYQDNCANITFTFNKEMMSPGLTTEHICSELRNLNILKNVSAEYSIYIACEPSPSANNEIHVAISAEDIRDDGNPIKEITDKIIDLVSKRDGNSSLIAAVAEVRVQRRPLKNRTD

binding [1]: binds
binding [2]: binds
Substance: recombinant human Jagged1-Fc chimeric ligand (from UniProt P78504 34-1067) (Fc fusion)

From paper doi:10.1101/2025.05.05.652186
